# Measurements from PubChem BioAssay AID587 (National Center for Advancing Translational Sciences (NCATS), 2007).
# Hit rate of the full screen: of about 59,000 compounds, about 35 (0.06%) were called active. The shares of active, inactive and inconclusive entries below differ from those in the screen. Cut-off read from the data, not from the text of the source: active = max dye-equivalent concentration above about 10 nM; inconclusive = between about 1.1 nM and that limit; inactive = weaker than that.
# Assay: qHTS Assay for Spectroscopic Profiling in Texas Red Spectral Region
# Conditions: Compound fluorescence, Texas Red channel, 547/618 nm; hits give high values
# Summary of the method: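 Compound titrations in 100 mM Tris pH 8.0 were incubated 15 min at room temperature and read at 547 nm excitation / 618 nm emission. Texas Red six-point standard curve on each plate converted fluorescence to dye-equivalent concentration.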
row,SMILES,max dye-equivalent concentration
1,CC1CCc2cc(F)cc3c(O)c(C(=O)NCc4ccco4)c(=O)n1c23 (stereo not given),inconclusive: 1.1 nM
2,O=C(CN1CCOCC1)Nc1ccccc1-c1ccccc1,inconclusive: 1.3 nM
3,CCc1nnc(NC(=O)CCC(=O)N2CCN(Cc3ccc(Cl)cc3)CC2)s1,inconclusive: 1.5 nM
4,COc1ccc2[nH]c3nc(SCc4nnc(-c5ccccc5)o4)nnc3c2c1,inconclusive: 1.1 nM
5,CC1CC2(CC(C)(C(=O)CSc3n[nH]c(-c4ccccc4Cl)n3)OC2=O)C(=O)O1 (stereo not given),inconclusive: 1.1 nM
6,O=C(O)/C(=C1/OC(=O)c2ccccc21)c1ccccc1,inconclusive: 1.2 nM
7,O=C(Nc1ccc(N2CCOCC2)c(Cl)c1)c1ccc(Br)o1,inconclusive: 1.3 nM
8,CCOC(=O)N1CCN(C2CC(=O)N(c3ccc(C)cc3)C2=O)CC1 (stereo not given),inconclusive: 1.4 nM
9,CCCn1cnc2cc(NCc3cccc(OC)c3O)ccc21,inconclusive: 1.8 nM
10,COc1ccc(C(=O)CSc2nnc(-c3ccccn3)n2Cc2ccco2)cc1,inconclusive: 1.4 nM
11,CC1(C)Cc2nc3sc4c(N(CCO)CCO)ncnc4c3cc2CO1,inconclusive: 1.1 nM
12,Cn1cc(C(=O)c2ccccc2)cc1-c1nc2ccccc2n1C,inconclusive: 2 nM
13,Cc1ccccc1-c1ccc(C=Nc2c(C)n(C)n(-c3ccccc3)c2=O)o1,inconclusive: 1.2 nM
14,CN1CC=C2C(C#N)=C(N)C(C#N)(C#N)C(Cc3ccccc3)C2C1 (stereo not given),inconclusive: 1.3 nM
15,O=C(CCSc1ccccc1)N1CCN(C(=O)c2ccco2)CC1,inconclusive: 1.4 nM
16,O=P(Cc1nnco1)(c1ccccc1)c1ccccc1,inconclusive: 1.3 nM
17,CCN1CC=C2C(C#N)=C(N)C(C#N)(C#N)C(CCc3ccccc3)C2C1 (stereo not given),inactive
18,CC1(C)CC(=O)C(C=NCCN2CCN(C(=O)C34CC5CC(CC(C5)C3)C4)CC2)=C(O)C1,inconclusive: 1.2 nM
19,O=C(c1cccs1)N(Cc1ccco1)Cc1cc2ccccc2[nH]c1=O,inconclusive: 1.3 nM
20,CCCn1c(=O)c2ccccc2n2c(SCCOc3ccc(Cl)cc3)nnc12,inconclusive: 1.1 nM
21,COc1cc(NC(=O)c2ccc(Br)o2)ccc1NC(=O)c1ccccc1Cl,inconclusive: 1.5 nM
22,COc1cc(-c2nc3cnccn3c2Nc2ccc3c(c2)OCCO3)ccc1O,inconclusive: 1.1 nM
23,COc1cccc(C(CC(=O)NCc2ccco2)NS(=O)(=O)c2ccc(C)cc2)c1OC (stereo not given),inconclusive: 1.3 nM
24,CCOc1ccccc1NC(=O)NC1(C(=O)N2CCN3CCCC3C2)CCCCC1 (stereo not given),inconclusive: 1.1 nM
25,COc1ccc2nc(SCC(=O)N3CCCCCC3)c(C#N)cc2c1,inconclusive: 1.5 nM
26,O=C(CCCc1nc2ccccc2s1)N1CCN(S(=O)(=O)c2cccs2)CC1,inconclusive: 1.7 nM
27,NC(=O)NC(Cc1ccccc1)C(=O)NCC1(N2CCCCC2)CCCCC1 (stereo not given),inconclusive: 1.3 nM
28,CCOC(=O)c1ccc(NC(=O)CCc2nc(-c3ccc(Cl)cc3)no2)cc1,inconclusive: 1.3 nM

row,SMILES,max dye-equivalent concentration
1,COc1ccc(C(=O)NCC(=O)O)cc1,inconclusive: 1.2 nM
2,CC(=O)NC1CC2CCCC(C1)N2C(=O)Nc1ccc(Cl)c(C(F)(F)F)c1 (stereo not given),inconclusive: 2.6 nM
3,CC(C)CNC(=O)COc1ccc2c3c(c(=O)oc2c1)CCC3,inconclusive: 1.6 nM
4,Cc1cnc(NC(=O)CCCSc2nc3ccccc3s2)s1,inconclusive: 1.7 nM
5,CCN(CC)C(=O)CSc1nc2ncc(Cl)cc2[nH]1,inconclusive: 1.5 nM
6,CCn1c(CCn2ccnc2C)n[nH]c1=S,inconclusive: 1.1 nM
7,CCCC[C@]1(C2CCCC2)Cc2cc(OCC(=O)O)c(Cl)c(Cl)c2C1=O,inactive
8,COC(=O)C1(S(=O)(=O)C2(C(=O)OC)CCCC2)CCCC1,inconclusive: 2.2 nM
9,Cc1ccc(C2(c3ccc(C)cc3)NC(=O)N(Cc3c(C)noc3C)C2=O)cc1,inconclusive: 1.1 nM
10,Nc1nc(-c2cccnc2)cc(-c2cc(-c3cccnc3)nc(N)n2)n1,inconclusive: 1.1 nM
11,CC(O)CCC(=O)NCCNC(=O)CCC(C)O (stereo not given),inconclusive: 1.1 nM
12,O=C(Nn1c(C2CCC2)nc2ccccc2c1=O)C1CCC1,inconclusive: 1.1 nM
13,Cn1ccnc1Sc1nc2ccccc2nc1NS(=O)(=O)c1ccccc1,inactive
14,CCOC(=O)C1=C(N)N2C(=O)C(C)SC2=C(C(=O)OC)C1c1ccccc1OC (stereo not given),inconclusive: 1.4 nM
15,CC[C@H](NC(C)C)[C@H](O)c1ccc(O)c(O)c1,inconclusive: 1.3 nM
16,CCCCNC(=O)COC(=O)c1cc2c(C)nn(-c3ccccc3)c2s1,inconclusive: 1.5 nM
17,Cc1ccc(C(=O)Nc2ccc3c(c2)OCO3)cc1S(=O)(=O)N1CCCCC1,inconclusive: 1.2 nM
18,CC1CCN(C(=O)Nc2cccc(NC(=O)N3CCC(C)CC3)c2)CC1,inconclusive: 1.2 nM
19,CCOC(=O)N1CCC(N(C(=O)Nc2ccccc2)C(C)CC)CC1 (stereo not given),inconclusive: 1.6 nM
20,O=C(c1ccco1)N1CCCSC1=Nc1ccccc1,inconclusive: 1.5 nM
21,CN1CCc2c(sc3c2c(NCc2ccco2)nc2nnnn23)C1,inactive
22,CC(=O)N1CCCc2cc(S(=O)(=O)NCCC3=CCCCC3)ccc21,inconclusive: 1.1 nM
23,CCOC(=O)C1=C(O)CCn2c1nc1ccccc12,inconclusive: 1.3 nM
24,Nn1c(SCC(=O)Nc2ccccc2)nnc1-c1cccnc1,inconclusive: 2 nM
25,Cc1ccc(S(=O)(=O)NCCSc2nnnn2C)cc1,inconclusive: 1.1 nM
26,CCc1c(C(=O)NCCc2ccc(OC)c(OC)c2)[nH]c(C)c1C(C)=O,inconclusive: 2.1 nM
27,CC[C@H](C(=O)c1cccs1)C(O)(C(F)(F)F)C(F)(F)F,inconclusive: 1.8 nM

# Quoted at random: 2 entries already listed.
row,SMILES,max dye-equivalent concentration
14,CCOC(=O)C1=C(N)N2C(=O)C(C)SC2=C(C(=O)OC)C1c1ccccc1OC (stereo not given),inconclusive: 1.4 nM
27,CC[C@H](C(=O)c1cccs1)C(O)(C(F)(F)F)C(F)(F)F,inconclusive: 1.8 nM
